Test results from US20160303089A1, “COMPOUND PERTAINING TO NEUROPOIESIS AND DRUG COMPOSITION” (KYOTO UNIVERSITY, priority 2013, published 2016).
Some entries share one result that the patent states for a list of compounds.

Assays:
[1] = test system: cultured neural stem cells; assay: BrdU incorporation in cultured neural stem cells (ArrayScan); format: cell-based; settings: neural stem cells isolated from fetal mouse brain, cultured in presence of compound
cyclin D1 = assay: Cyclin D1 expression in cultured neural stem cells (western blotting); format: cell-based; settings: neural stem cells isolated from fetal mouse brain, cultured in presence of compound

In the case of `COc1ccc2c([nH]c3c(C)nccc32)c1C#C[Si](C)(C)C` [compound 3, 8-[2-(trimethylsilyl)ethynyl]harmine], the “amount of incorporation of BrdU (cell proliferation marker)” value [1] is reported as “increased” and the “expression level of cyclin D1” value (cyclin D1) is reported as “increased”.
